Results reported in the supplement of paper PMC12067093, “Discovery and optimisation of a covalent ligand for TRIM25 and its application to targeted protein ubiquitination” (Chemical Science, 2025).
This is one part of the list.

Amino acid sequences for entries named in this document (tags omitted). A change or cut given only in a name is not applied to a line headed by its entry.
UniProt Q69YH5: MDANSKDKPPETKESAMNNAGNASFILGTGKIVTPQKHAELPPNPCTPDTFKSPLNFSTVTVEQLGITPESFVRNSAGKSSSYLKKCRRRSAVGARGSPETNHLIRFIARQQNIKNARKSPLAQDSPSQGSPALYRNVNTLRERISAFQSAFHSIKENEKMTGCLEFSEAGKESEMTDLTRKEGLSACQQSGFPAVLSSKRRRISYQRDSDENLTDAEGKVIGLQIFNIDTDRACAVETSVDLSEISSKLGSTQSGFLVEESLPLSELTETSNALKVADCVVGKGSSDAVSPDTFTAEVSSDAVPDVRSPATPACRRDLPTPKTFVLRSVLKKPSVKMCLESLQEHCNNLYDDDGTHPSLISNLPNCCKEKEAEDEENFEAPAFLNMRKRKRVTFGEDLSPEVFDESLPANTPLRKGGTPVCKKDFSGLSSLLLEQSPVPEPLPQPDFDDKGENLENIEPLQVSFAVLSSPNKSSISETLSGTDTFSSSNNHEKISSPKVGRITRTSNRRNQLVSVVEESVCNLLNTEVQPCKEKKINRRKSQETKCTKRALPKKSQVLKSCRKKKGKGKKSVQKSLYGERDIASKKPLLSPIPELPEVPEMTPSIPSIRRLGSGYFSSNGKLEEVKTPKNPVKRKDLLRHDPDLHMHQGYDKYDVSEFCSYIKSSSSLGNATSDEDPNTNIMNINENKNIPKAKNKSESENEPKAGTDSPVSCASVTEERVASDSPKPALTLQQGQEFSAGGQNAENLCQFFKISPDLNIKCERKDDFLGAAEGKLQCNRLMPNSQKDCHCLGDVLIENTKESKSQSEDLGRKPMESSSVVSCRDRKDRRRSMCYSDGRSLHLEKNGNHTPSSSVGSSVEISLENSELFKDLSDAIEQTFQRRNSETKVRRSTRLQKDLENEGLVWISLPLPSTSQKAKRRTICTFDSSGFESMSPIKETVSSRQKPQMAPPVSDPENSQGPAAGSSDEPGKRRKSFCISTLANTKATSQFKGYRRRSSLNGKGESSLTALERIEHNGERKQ
UniProt O75794: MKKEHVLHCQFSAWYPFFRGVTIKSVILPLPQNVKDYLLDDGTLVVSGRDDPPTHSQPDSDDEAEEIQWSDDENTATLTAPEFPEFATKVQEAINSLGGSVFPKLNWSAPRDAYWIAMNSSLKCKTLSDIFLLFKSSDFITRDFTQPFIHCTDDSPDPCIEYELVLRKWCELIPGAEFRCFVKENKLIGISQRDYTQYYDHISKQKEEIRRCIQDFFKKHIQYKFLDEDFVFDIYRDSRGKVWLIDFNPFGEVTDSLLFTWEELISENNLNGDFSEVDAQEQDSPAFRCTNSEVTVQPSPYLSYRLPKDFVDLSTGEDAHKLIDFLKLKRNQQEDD
UniProt Q9NXV6: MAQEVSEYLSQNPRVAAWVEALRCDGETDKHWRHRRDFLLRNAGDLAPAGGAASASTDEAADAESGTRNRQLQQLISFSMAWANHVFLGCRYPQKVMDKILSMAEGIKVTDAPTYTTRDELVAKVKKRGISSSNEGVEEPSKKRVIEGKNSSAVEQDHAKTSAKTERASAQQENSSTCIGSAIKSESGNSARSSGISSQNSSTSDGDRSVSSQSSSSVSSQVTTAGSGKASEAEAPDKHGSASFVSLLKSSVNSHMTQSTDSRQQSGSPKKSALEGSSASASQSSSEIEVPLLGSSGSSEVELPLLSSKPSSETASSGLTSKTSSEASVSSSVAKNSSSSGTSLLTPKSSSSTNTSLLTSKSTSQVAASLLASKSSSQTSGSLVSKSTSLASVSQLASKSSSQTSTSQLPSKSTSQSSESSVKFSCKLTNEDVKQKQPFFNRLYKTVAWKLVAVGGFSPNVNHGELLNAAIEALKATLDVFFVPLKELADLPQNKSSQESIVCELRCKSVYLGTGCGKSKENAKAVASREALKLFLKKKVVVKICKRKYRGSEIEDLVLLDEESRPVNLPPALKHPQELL
UniProt Q9UJX2, whole entry, looked up: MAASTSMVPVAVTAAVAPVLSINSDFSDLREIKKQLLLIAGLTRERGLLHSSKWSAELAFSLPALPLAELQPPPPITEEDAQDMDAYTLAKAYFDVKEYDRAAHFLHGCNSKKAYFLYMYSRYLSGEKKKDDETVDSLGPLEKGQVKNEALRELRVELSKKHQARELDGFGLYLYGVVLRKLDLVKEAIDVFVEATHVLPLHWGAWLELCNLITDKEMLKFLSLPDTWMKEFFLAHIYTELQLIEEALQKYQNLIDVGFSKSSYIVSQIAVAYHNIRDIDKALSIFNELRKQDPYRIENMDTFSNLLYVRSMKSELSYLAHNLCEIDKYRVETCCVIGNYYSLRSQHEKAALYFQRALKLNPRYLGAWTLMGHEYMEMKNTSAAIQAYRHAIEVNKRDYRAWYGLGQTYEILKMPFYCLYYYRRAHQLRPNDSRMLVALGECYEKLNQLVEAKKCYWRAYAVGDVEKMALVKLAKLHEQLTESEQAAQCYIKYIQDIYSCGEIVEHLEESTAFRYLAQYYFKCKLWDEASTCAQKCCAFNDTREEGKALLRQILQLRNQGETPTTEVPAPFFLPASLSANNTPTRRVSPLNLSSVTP
UniProt Q5SW79: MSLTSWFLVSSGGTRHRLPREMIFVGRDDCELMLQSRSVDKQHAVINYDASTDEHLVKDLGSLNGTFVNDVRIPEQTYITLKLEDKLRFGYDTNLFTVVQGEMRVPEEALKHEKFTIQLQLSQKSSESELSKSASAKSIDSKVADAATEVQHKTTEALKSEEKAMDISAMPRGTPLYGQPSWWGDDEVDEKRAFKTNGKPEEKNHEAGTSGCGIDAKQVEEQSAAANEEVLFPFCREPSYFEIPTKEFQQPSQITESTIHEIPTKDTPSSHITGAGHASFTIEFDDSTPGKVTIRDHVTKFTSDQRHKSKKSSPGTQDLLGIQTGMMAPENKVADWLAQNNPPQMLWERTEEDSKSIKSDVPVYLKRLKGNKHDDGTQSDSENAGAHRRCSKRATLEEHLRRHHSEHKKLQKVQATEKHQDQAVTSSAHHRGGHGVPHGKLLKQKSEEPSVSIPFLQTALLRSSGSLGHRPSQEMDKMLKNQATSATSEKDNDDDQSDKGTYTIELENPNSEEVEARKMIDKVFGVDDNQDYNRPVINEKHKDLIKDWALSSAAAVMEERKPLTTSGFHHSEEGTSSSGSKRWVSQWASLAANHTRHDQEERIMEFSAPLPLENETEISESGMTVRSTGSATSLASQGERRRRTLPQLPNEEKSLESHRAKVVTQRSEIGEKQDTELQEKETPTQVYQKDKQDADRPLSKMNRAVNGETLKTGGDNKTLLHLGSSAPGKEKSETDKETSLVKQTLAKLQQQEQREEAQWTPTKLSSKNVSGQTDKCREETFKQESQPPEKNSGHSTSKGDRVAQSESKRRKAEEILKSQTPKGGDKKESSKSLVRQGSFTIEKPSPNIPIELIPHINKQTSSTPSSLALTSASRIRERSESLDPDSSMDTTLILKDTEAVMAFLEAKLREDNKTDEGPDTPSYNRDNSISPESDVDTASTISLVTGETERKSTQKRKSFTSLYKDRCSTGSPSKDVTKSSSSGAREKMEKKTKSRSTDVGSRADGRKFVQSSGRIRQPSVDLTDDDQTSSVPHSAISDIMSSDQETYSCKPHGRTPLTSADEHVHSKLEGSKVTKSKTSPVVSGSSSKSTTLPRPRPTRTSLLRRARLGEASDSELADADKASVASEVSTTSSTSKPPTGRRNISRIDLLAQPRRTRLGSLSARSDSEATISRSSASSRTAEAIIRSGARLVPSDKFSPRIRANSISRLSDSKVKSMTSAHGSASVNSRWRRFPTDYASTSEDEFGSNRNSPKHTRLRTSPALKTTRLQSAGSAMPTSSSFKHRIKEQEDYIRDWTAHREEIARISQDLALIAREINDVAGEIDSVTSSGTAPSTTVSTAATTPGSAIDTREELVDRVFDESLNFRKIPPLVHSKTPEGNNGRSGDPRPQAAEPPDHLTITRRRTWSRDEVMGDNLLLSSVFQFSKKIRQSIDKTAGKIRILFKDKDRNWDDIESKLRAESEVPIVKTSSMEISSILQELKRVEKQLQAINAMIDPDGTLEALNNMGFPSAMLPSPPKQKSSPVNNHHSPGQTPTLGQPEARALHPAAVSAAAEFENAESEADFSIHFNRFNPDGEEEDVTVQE
UniProt Q9H211: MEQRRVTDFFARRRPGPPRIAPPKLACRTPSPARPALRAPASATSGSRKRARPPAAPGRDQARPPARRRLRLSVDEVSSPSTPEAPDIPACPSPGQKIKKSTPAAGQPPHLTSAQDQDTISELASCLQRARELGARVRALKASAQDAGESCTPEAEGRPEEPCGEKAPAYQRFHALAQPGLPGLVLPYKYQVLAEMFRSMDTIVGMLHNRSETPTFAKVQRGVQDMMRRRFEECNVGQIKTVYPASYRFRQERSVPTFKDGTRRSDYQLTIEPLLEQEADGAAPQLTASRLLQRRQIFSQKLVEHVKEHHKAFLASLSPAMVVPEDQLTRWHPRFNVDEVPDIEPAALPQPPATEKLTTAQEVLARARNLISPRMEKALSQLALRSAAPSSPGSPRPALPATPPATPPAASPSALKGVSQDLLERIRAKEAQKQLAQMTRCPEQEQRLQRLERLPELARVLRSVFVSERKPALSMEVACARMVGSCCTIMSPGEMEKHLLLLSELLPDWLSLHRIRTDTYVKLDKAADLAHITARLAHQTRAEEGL
UniProt P34810: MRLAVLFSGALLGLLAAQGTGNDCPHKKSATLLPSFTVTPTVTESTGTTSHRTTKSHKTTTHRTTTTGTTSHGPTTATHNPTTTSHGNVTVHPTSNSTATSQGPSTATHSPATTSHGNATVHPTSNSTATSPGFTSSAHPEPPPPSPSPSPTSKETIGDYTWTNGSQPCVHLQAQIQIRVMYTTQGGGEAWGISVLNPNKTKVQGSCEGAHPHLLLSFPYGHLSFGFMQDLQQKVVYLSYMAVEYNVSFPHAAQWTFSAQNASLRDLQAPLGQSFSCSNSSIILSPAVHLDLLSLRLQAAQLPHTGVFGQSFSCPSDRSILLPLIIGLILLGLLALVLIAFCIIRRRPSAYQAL
UniProt P48643, whole entry, looked up: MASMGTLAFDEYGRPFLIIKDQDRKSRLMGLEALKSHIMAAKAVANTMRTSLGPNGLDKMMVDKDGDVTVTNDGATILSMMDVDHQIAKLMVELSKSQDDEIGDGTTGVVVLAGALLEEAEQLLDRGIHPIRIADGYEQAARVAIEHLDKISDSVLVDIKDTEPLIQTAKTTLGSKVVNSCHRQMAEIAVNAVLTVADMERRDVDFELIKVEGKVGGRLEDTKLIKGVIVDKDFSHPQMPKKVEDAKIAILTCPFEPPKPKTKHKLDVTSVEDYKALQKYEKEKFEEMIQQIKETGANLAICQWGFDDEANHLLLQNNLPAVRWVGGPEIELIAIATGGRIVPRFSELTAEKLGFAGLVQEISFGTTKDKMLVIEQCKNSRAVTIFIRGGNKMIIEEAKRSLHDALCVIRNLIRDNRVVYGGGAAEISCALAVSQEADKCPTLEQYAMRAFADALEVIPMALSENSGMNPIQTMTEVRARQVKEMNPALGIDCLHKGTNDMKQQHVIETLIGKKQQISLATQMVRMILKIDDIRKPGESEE
UniProt P40227, whole entry, looked up: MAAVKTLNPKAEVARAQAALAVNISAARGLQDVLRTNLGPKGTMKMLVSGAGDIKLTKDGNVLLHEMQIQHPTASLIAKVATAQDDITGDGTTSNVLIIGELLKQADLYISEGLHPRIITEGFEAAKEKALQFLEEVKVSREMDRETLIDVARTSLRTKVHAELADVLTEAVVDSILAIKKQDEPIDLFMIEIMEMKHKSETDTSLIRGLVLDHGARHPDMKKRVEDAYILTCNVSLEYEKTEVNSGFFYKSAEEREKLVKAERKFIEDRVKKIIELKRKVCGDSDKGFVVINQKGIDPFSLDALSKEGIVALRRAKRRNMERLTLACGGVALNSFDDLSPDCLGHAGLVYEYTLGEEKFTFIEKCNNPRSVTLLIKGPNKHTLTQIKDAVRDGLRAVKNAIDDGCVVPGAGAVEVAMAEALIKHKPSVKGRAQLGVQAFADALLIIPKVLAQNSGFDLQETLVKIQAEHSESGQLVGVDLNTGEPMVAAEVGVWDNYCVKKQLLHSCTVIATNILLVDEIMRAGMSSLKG
UniProt Q12834, whole entry, looked up: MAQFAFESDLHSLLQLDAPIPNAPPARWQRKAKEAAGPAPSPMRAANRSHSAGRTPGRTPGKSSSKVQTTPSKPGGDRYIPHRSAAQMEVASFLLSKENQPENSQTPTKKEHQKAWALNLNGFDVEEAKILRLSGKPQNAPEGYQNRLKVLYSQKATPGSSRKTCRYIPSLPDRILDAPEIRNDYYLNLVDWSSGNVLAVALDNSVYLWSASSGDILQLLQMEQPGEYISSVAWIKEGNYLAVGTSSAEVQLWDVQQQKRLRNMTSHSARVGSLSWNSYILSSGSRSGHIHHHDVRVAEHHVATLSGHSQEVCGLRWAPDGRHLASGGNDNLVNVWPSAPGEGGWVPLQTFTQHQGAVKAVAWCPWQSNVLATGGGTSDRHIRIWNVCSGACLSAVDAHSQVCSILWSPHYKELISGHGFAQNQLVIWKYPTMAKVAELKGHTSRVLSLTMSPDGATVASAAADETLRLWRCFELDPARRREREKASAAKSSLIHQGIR

Compound: CC1Cc2ccccc2N1C(=O)C1CCCN(C1)C(=O)CCl (mixture of isomers) [TRIM25 ligand 11 (diastereomer mixture)]
Test: probe-labelled cysteine peptide fold change vs DMSO (competition) (log2 fold change); higher = less target engagement (more negative = stronger competition)
Details: THP-1, incubation time: 4 h
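Note: competitive chemoproteomic profiling in live THP-1 cells with an iodoacetamide desthiobiotin (IA-DTB) probe, comparing probe-labelled peptide intensities in compound-treated cells against DMSO-treated controls.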

Row | Target | probe-labelled cysteine peptide fold change (10 µM) | probe-labelled cysteine peptide fold change (50 µM)
1 | CDCA2_Q69YH5_790_DCHCLGDVLIENTK (UniProt Q69YH5) | -0.0355 | -0.258
2 | CDC123_O75794_9_EHVLHCQFSAWYPFFR (UniProt O75794) | 0.103 | 0.112
3 | CDKN2AIP_Q9NXV6_503_SSQESIVCELR (UniProt Q9NXV6) | 0.103 | 0.18
4 | CDC23_Q9UJX2_489_LHEQLTESEQAAQCYIK (UniProt Q9UJX2) | 0.0631 | 0.0348
5 | CEP170_Q5SW79_967_CSTGSPSK (UniProt Q5SW79) | -0.262 | -0.0381
6 | CDT1_Q9H211_163_ASAQDAGESCTPEAEGRPEEPCGEK (UniProt Q9H211) | -0.19 | -0.248
7 | CDC23_Q9UJX2_532_LWDEASTCAQK (UniProt Q9UJX2) | 0.0895 | 0.121
8 | CD68_P34810_314_LQAAQLPHTGVFGQSFSCPSDR (UniProt P34810) | -0.078 | -0.0764
9 | CCT5_P48643_377_MLVIEQCK (UniProt P48643) | -0.0243 | -0.101
10 | CCT6A_P40227_233_RVEDAYILTCNVSLEYEK (UniProt P40227) | 0.104 | 0.203
11 | CDC20_Q12834_364_AVAWCPWQSNVLATGGGTSDR (UniProt Q12834) | 0.0333 | -0.119
12 | CEP250_Q9BV73_110_CESLAEVNTQLR (UniProt Q9BV73) | -0.0431 | -0.0759
13 | CDC16_Q13042_194_LCNEEQELLR (UniProt Q13042) | 0.144 | -0.0536
14 | CEP170_Q5SW79_30_DDCELMLQSR (UniProt Q5SW79) | 0.137 | -0.0477
